No constants are given. Whether binding was seen depends on the method and setting. Binding calls can cover weak binding; strength is not graded here. For some of these results: Where a sequence is shown, tags or fusion partners need not be part of it. For some of these results: Binding seen in cells or lysates may run through a third protein.

Sequences of proteins named here, by UniProt entry; tags and fusion partners are left off. A change or cut given only in a name is not applied to a line headed by its entry.
UniProt Q9S7M2: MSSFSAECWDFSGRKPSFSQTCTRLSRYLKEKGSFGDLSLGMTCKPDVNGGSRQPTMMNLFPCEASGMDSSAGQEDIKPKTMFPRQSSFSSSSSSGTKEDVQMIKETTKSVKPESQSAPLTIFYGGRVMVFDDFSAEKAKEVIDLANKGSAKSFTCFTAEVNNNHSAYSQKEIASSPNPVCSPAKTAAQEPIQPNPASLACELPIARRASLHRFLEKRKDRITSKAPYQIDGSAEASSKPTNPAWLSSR
UniProt Q9C5K8: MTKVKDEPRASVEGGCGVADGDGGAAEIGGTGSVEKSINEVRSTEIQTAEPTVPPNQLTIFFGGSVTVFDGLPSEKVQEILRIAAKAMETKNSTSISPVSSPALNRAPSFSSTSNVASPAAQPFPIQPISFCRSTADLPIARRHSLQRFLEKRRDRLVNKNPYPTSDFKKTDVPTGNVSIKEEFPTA
UniProt Q9LNJ5: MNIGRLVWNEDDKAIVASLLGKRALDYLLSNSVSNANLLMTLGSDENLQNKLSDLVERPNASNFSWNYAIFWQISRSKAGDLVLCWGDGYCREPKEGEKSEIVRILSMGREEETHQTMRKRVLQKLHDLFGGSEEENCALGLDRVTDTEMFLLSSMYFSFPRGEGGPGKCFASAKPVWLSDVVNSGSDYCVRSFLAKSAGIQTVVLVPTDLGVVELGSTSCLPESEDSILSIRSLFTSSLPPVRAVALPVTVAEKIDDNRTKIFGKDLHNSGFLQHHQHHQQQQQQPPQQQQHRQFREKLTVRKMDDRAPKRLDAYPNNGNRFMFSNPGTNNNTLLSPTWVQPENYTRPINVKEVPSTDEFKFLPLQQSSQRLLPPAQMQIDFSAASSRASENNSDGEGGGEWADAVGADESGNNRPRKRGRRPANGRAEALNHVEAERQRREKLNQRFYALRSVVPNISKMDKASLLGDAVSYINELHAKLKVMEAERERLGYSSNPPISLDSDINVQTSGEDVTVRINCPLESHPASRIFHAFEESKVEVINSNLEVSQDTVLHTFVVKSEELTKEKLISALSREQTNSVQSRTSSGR
UniProt O23487: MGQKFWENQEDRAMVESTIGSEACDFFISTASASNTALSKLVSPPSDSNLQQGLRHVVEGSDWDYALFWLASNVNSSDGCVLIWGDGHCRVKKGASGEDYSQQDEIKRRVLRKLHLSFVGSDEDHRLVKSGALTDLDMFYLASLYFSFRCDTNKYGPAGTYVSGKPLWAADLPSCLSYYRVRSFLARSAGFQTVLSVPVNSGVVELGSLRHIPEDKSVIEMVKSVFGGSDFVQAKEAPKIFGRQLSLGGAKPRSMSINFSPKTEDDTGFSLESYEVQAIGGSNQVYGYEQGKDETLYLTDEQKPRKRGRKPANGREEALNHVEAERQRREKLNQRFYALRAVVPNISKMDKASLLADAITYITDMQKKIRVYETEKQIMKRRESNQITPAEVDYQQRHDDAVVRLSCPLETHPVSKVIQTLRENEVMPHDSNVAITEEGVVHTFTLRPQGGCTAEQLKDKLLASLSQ
UniProt Q9ZPY8: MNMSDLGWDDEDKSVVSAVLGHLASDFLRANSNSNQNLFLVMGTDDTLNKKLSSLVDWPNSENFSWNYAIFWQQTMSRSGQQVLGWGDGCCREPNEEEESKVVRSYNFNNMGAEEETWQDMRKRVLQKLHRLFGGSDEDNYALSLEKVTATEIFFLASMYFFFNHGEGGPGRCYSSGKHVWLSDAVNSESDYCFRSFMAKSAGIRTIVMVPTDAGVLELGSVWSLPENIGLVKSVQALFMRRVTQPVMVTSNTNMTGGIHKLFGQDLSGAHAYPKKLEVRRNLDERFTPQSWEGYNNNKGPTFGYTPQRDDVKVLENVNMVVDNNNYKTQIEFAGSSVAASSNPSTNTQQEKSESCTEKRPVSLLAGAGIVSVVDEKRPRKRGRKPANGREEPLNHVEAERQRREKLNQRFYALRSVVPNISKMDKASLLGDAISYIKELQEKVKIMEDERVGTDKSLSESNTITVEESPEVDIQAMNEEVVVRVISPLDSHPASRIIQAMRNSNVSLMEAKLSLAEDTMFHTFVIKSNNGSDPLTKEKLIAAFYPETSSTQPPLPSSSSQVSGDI

Experiment [1] addresses T1, JAZ11-BD (Arabidopsis thaliana) (UniProt Q9M246).
T1 sequence: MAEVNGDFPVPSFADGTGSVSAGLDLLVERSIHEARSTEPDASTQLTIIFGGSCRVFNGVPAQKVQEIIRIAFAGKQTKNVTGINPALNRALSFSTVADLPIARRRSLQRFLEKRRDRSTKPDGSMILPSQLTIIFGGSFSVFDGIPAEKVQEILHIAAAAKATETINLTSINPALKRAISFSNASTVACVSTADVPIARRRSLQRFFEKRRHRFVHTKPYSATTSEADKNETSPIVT
The experiment in a line: two-hybrid; yeast AH109 co-transformed with JAZ-BD (pGBKT7) and bHLH-AD (pGADT7); growth for 3 days at 30°C on medium lacking Ade, His, Leu and Trp.

Experiment [2] has as its target T2, JAZ7-BD (Arabidopsis thaliana) (UniProt O64687).
T2 sequence: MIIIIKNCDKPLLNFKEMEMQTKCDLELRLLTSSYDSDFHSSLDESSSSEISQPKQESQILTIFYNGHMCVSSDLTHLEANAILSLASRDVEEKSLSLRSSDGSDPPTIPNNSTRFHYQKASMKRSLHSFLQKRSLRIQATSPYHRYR
Described as above.

Experiment [3] has as its target T3, JAZ4-BD (Arabidopsis thaliana) (UniProt Q58G47).
T3 sequence: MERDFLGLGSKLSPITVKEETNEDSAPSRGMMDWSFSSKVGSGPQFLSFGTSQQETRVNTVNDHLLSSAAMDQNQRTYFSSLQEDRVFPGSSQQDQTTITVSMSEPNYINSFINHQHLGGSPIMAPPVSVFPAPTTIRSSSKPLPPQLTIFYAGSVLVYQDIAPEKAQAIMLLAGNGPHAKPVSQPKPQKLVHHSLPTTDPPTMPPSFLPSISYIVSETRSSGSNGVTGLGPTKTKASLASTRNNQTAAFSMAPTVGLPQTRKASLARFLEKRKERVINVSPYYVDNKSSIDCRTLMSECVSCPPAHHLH
Described as above.

The target of experiment [4] is T4, JAZ9-BD (Arabidopsis thaliana) (UniProt Q8W4J8).
T4 sequence: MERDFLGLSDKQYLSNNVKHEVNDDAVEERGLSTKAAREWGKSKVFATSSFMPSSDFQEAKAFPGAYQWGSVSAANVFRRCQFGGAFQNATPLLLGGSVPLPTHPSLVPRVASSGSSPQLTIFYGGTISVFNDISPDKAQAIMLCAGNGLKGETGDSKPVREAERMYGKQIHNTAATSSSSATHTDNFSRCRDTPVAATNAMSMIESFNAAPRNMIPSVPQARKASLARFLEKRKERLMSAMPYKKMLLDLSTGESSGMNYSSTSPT
Described as above.

Experiment [5] deals with JAZ2-BD (Arabidopsis thaliana) (UniProt Q9S7M2). Described as above.
In experiment [6] the target is JAZ12-BD (Arabidopsis thaliana) (UniProt Q9C5K8). The description is as above.
Experiment [7] has as its target MBP-JAZ2 (Arabidopsis thaliana) (UniProt Q9S7M2). The experiment in a line: pull-down; recombinant MBP fusion (MBP-JAZ or MBP-bHLH) from E. coli as bait; bHLH-HA in extracts of 10-day-old transgenic Arabidopsis seedlings (50 mM Tris-HCl pH 7.4, 80 mM NaCl, 10% glycerol, 0.1% Tween-20, 1 mM DTT, MG132); anti-HA immunoblot; only the target purified. A general note: Immunoblotting shows a protein as a band on a membrane.

For experiment [8], the target named is T5, MBP-JAZ4 (Arabidopsis thaliana) (UniProt Q58G47).
T5 sequence: T3 sequence
The experiment is described as above.

For experiment [9], the target named is T6, MBP-JAZ11 (Arabidopsis thaliana) (UniProt Q9M246).
T6 sequence: T1 sequence
Described as above.

The target in experiment [10] is T7, MBP-JAZ9 (Arabidopsis thaliana) (UniProt Q8W4J8).
T7 sequence: T4 sequence
The experiment is described as above.

Experiment [11] has as its target T8, JAZ3-BD (Arabidopsis thaliana) (UniProt Q9LVI4).
T8 sequence: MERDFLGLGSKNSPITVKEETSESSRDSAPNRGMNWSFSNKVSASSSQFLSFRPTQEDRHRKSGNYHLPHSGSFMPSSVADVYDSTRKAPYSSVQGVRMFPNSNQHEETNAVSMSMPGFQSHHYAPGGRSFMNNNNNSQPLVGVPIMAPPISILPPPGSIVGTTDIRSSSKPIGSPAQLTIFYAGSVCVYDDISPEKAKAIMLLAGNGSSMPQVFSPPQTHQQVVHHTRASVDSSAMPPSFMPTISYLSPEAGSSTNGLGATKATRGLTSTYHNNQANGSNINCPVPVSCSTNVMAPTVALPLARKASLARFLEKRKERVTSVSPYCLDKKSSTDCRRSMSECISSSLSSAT
The experiment in a line: two-hybrid; yeast AH109 co-transformed with JAZ-BD (pGBKT7) and bHLH-AD (pGADT7); growth for 3 days at 30°C on medium lacking Ade, His, Leu and Trp.

The target of experiment [12] is T9, MBP-JAZ3 (Arabidopsis thaliana) (UniProt Q9LVI4).
T9 sequence: T8 sequence
The experiment is described as follows: pull-down; recombinant MBP fusion (MBP-JAZ or MBP-bHLH) from E. coli as bait; bHLH-HA in extracts of 10-day-old transgenic Arabidopsis seedlings (50 mM Tris-HCl pH 7.4, 80 mM NaCl, 10% glycerol, 0.1% Tween-20, 1 mM DTT, MG132); anti-HA immunoblot; only the target purified.

Experiment [13] addresses MBP-bHLH013 (Arabidopsis thaliana) (UniProt Q9LNJ5). Described as above.
The target of experiment [14] is T10, MBP-JAZ7 (Arabidopsis thaliana) (UniProt O64687).
T10 sequence: T2 sequence
Described as above.

In experiment [15] the target is MBP-bHLH003 (Arabidopsis thaliana) (UniProt O23487). The description is as above.
Experiment [16] addresses T11, JAZ8-BD (Arabidopsis thaliana) (UniProt Q8LBM2).
T11 sequence: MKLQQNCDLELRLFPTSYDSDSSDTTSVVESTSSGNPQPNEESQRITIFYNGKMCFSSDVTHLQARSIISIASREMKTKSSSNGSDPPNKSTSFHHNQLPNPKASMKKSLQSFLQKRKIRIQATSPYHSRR
The experiment is described as follows: two-hybrid; yeast AH109 co-transformed with JAZ-BD (pGBKT7) and bHLH-AD (pGADT7); growth for 3 days at 30°C on medium lacking Ade, His, Leu and Trp.

Experiment [17] deals with T12, JAZ10-BD (Arabidopsis thaliana) (UniProt Q93ZM9).
T12 sequence: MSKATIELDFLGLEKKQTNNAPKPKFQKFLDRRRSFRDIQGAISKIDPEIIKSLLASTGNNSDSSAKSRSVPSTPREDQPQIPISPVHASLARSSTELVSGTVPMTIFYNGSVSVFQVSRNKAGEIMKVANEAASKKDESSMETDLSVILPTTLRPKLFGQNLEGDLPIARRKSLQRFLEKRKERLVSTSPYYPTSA
The experiment is described as above.

Experiment [18] deals with T13, MBP-JAZ10 (Arabidopsis thaliana) (UniProt Q93ZM9).
T13 sequence: T12 sequence
The experiment is described as follows: pull-down; recombinant MBP fusion (MBP-JAZ or MBP-bHLH) from E. coli as bait; bHLH-HA in extracts of 10-day-old transgenic Arabidopsis seedlings (50 mM Tris-HCl pH 7.4, 80 mM NaCl, 10% glycerol, 0.1% Tween-20, 1 mM DTT, MG132); anti-HA immunoblot; only the target purified.

For experiment [19], the target named is T14, MBP-JAZ8 (Arabidopsis thaliana) (UniProt Q8LBM2).
T14 sequence: T11 sequence
The experiment is described as above.

Experiment [20] concerns the target MBP-JAZ12 (Arabidopsis thaliana) (UniProt Q9C5K8). The experiment is described as above.
Experiment [21] has as its target MBP-bHLH017 (Arabidopsis thaliana) (UniProt Q9ZPY8). The description is as above.

Regarding bHLH003-AD (from UniProt O23487), the binding entry in [1] is recorded as “binds”; in [2] it was “no binding”; in experiment [3], “binds”; in experiment [4], “binds”; in experiment [5] it was “binds”; in [6], “no binding”.

Turning to bHLH003-HA (from UniProt O23487), the binding result in [7], in experiment [8], in experiment [9] and in experiment [10] was “binds” throughout.

For the substance bHLH013-AD (from UniProt Q9LNJ5), the binding result is “binds” in [1]; “no binding” in [2]; “binds” in experiment [11]; “binds” in experiment [4]; “binds” in experiment [5].

With bHLH013-HA (from UniProt Q9LNJ5), the binding result is reported as “binds” in [12]; “binds” in [13]; “binds” in experiment [7]; “no binding” in experiment [14]; “binds” in experiment [9]; “binds” in [15]. Moreover, in experiment [10], the binding entry is “binds”.

For bHLH017-AD (from UniProt Q9ZPY8), the binding entry was “binds” in experiment [1]; “binds” in experiment [16]; “binds” in experiment [2]; “binds” in experiment [11]; “binds weakly” in [3]; “binds” in [17]. Besides, the binding entry in experiment [4], in [5] and in [6] was “binds” throughout.

In the case of bHLH017-HA (from UniProt Q9ZPY8), the binding entry in [12], in experiment [13], in experiment [18], in experiment [19], in experiment [7] and in experiment [20] was “binds” in each case. Also, the binding result in [14], in experiment [8], in experiment [21], in experiment [9], in experiment [15] and in experiment [10] was “binds” in each case.
